These results are taken from the supplement of paper PMC6411743.

Amino acid sequences for entries named in this document (tags omitted).
UniProt P54709, whole entry: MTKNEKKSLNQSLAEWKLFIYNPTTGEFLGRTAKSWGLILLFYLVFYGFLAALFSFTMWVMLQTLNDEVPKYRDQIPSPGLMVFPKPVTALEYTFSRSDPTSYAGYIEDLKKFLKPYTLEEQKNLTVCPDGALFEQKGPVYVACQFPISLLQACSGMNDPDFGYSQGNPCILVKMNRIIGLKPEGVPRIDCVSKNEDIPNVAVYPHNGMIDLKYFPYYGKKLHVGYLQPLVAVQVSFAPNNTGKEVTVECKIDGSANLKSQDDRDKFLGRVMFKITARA

For the experiment, the target named is ATP1B3 (UniProt P54709). In words: NP40-soluble protein abundance relative to vehicle (solubility fold change) (ratio); higher = more soluble protein in presence of ATP. In outline:
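Across three independent experiments, values are fold changes against the detergent-processed vehicle for each replicate, based on vsn-normalised intensities. The samples were Jurkat crude lysate treated with eight concentrations (0.1 to 10 mM) for 10 min at room temperature and then 3 min at 37 °C. Lysate was solubilised with 0.8% NP40 and benzonase, ultracentrifuged, and the supernatant analysed by TMT-labelled LC-MS/MS.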

± gives the standard deviation of the averaged measurements. The entries are a selection whose mix differs from that of the whole data set.

For the molecule `Nc1ncnc2c1ncn2[C@@H]1O[C@H](COP(=O)(O)OP(=O)(O)OP(=O)(O)O)[C@@H](O)[C@H]1O` [adenosine triphosphate], the NP40-soluble protein abundance reads like this: (concentration: 1mM) 0.973 ± 0.098; (concentration: 2mM) 0.973 ± 0.0084; (concentration: 4mM) 0.936 ± 0.079; (concentration: 6mM) 0.9533 ± 0.00095; (concentration: 8mM) 0.933 ± 0.06; (concentration: 10mM) 0.908 ± 0.028.
